The values below come from article PMC8880992.

By UniProt entry, the sequences of proteins in these tests, tags left out.
UniProt P51965: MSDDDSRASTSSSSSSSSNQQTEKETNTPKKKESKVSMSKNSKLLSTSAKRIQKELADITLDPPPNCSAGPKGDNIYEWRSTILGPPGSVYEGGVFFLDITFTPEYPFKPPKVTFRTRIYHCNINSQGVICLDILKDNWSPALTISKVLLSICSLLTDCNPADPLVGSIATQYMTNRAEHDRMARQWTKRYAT
UniProt Q02248: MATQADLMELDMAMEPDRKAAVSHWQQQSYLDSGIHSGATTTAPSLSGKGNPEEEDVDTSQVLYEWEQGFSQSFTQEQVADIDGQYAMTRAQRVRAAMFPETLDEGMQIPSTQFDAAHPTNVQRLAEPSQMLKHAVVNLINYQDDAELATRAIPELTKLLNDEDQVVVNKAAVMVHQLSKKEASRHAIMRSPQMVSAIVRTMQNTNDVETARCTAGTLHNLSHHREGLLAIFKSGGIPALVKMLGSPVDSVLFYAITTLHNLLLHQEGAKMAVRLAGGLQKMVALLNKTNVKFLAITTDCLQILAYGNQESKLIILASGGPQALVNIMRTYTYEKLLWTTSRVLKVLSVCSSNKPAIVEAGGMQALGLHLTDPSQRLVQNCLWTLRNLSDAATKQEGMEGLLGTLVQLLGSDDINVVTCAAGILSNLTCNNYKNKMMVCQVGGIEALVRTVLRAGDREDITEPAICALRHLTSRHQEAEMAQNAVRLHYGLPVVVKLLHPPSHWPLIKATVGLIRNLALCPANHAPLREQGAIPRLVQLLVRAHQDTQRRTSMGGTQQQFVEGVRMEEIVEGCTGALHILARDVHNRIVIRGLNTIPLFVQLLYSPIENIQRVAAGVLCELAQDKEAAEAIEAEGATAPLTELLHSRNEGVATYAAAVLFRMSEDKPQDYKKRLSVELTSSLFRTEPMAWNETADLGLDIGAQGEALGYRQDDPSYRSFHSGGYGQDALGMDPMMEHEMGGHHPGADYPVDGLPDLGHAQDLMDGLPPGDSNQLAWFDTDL

Assay [1] addresses T1, endogenous Mks1 of mIMCD3 cells (mouse (endogenous in mIMCD3)) (UniProt Q5SW45).
T1 sequence: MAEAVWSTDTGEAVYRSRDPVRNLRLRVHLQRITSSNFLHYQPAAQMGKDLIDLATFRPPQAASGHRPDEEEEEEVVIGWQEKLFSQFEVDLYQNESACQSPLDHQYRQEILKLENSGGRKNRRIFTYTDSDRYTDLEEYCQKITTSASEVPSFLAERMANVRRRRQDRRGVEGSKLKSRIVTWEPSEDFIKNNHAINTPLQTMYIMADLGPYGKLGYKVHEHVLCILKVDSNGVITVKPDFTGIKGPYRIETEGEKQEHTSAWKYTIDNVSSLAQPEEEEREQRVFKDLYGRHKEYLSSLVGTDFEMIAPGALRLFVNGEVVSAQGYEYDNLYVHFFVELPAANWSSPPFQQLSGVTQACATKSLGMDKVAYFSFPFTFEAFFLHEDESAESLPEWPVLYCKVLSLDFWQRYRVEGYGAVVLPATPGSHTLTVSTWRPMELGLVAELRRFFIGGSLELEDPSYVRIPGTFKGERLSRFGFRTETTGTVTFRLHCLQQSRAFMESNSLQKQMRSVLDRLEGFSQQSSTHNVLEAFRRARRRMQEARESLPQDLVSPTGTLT
The assay can be described thus: co-IP; anti-MKS1 immunoprecipitation from shScr and shUbe2e1 knockdown mIMCD3 cells, immunoblot for β-catenin.

The next assay addresses GST-UBE2E1 (human) (UniProt P51965). The assay can be described thus: pull-down; GST-UBE2E1 purified from bacterial extracts as bait; endogenous MKS1 from ARPE19 whole cell extract; only the target purified.
For assay [2], the target named is endogenous UBE2E1 (cells not stated) (UniProt P51965). As to the kind of experiment: co-IP; exogenously expressed cmyc-MKS1 precipitated with endogenous UBE2E1 by anti-UBE2E1; controls pre-immune serum and an irrelevant antibody; cells not given.
The target of assay [3] is T2, endogenous MKS1 (cells not stated) (UniProt Q9NXB0).
T2 sequence: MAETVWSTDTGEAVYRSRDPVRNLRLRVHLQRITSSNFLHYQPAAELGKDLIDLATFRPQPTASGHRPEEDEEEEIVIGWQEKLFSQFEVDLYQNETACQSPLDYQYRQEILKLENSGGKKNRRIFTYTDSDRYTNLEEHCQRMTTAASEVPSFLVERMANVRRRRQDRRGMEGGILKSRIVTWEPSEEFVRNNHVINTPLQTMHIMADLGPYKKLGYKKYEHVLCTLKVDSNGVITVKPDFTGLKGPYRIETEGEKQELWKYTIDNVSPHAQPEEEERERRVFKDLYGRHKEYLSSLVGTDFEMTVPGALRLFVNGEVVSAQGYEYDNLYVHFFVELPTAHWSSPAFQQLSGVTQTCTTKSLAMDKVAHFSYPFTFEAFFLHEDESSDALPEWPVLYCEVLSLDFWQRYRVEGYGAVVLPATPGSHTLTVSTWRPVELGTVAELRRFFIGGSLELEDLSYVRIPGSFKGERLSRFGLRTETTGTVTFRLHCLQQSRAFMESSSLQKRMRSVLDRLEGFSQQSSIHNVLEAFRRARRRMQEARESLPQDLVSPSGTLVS
The assay can be described thus: co-IP; endogenous proteins from whole cell extract precipitated by rabbit polyclonal anti-MKS1; controls pre-immune serum and an irrelevant antibody; cells not given.

No constants are given. Whether binding was seen depends on the method and setting. In cells and extracts the contact can be indirect. Some binding calls cover weakened binding; strength is not graded here. For some of these results: Tags and fused reporters may be left off the sequences shown.

Consider “endogenous β-catenin of mIMCD3 cells (from UniProt Q02248 1-781)”, for which the binding result in assay [1] is reported as “binds”.

B1: endogenous MKS1 of ARPE19 cells (protein, UniProt Q9NXB0 1-559)
chain: T2 sequence
For the molecule B1, the binding result with GST-UBE2E1 (human) is “binds”.

B2: cmyc-MKS1 (protein, UniProt Q9NXB0-1 1-559)
chain: T2 sequence
On to B2, for which the binding result in assay [2] is given as “binds”.

B3: endogenous RNF34 (30 and 40 kDa isoforms) (enzyme, UniProt Q969K3 1-372)
chain: MKAGATSMWASCCGLLNEVMGTGAVRGQQSAFAGATGPFRFTPNPEFSTYPPAATEGPNIVCKACGLSFSVFRKKHVCCDCKKDFCSVCSVLQENLRRCSTCHLLQETAFQRPQLMRLKVKDLRQYLILRNIPIDTCREKEDLVDLVLCHHGLGSEDDMDTSSLNSSRSQTSSFFTRSFFSNYTAPSATMSSFQGELMDGDQTSRSGVPAQVQSEITSANTEDDDDDDDEDDDDEEENAEDRNPGLSKERVRASLSDLSSLDDVEGMSVRQLKEILARNFVNYSGCCEKWELVEKVNRLYKENEENQKSYGERLQLQDEEDDSLCRICMDAVIDCVLLECGHMVTCTKCGKRMSECPICRQYVVRAVHVFKS
B3: the binding result in assay [3] is reported as “binds”.
